{"sequences": {"note": "Chains of the proteins cited; added tags and fusions are not shown.", "UniProt P21453, whole entry, species assumed": "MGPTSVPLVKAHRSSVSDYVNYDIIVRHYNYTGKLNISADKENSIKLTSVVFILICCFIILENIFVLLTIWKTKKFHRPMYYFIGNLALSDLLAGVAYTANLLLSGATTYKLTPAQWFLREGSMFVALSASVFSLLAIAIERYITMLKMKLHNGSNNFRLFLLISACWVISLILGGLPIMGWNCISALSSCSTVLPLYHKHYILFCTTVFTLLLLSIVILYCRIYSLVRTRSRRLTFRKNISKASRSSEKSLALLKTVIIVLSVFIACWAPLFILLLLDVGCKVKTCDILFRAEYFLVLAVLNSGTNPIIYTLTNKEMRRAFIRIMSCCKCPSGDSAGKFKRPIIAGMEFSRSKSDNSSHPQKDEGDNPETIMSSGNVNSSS"}, "source": "patent US20250213503A1", "about": "“TREATMENT OF CANCER WITH S1P RECEPTOR AGONISTS” (PRIOTHERA SAS, priority 2022, published 2025)", "key": {"[1]": {"system": "THP-1 (AML)", "assay": "cellular cytotoxicity (Annexin V and DAPI cell death) on blood cancer cell lines", "assay_type": "cell-based", "settings": "7.5 μM mocravimod, 2 and 24 hours, compared to control untreated arm"}, "[2]": {"target": "S1PR1 (Homo sapiens, UniProt P21453)", "settings": "cited from earlier work"}, "[3]": {"system": "donor T cells", "settings": "short-term administration of KRP203 alone; cited from earlier work"}, "[4]": {"system": "MOLM-13 (AML)", "assay": "cellular cytotoxicity (Annexin V and DAPI cell death) on blood cancer cell lines", "assay_type": "cell-based", "settings": "7.5 μM mocravimod, 2 and 24 hours, compared to control untreated arm"}, "[5]": {"system": "Kasumi-1 (AML)", "assay": "cellular cytotoxicity (Annexin V and DAPI cell death) on blood cancer cell lines", "assay_type": "cell-based", "settings": "7.5 μM mocravimod, 2 and 24 hours, compared to control untreated arm"}, "[6]": {"system": "Raji (B cell lymphoma)", "assay": "cellular cytotoxicity (Annexin V and DAPI cell death) on blood cancer cell lines", "assay_type": "cell-based", "settings": "7.5 μM mocravimod, 2 and 24 hours, compared to control untreated arm"}, "[7]": {"system": "Jurkat (ALL)", "assay": "cellular cytotoxicity (Annexin V and DAPI cell death) on blood cancer cell lines", "assay_type": "cell-based", "settings": "7.5 μM mocravimod, 2 and 24 hours, compared to control untreated arm"}, "[8]": {"system": "MV-4-11 (AML)", "assay": "cellular cytotoxicity (Annexin V and DAPI cell death) on blood cancer cell lines", "assay_type": "cell-based", "settings": "7.5 μM mocravimod, 2 and 24 hours, compared to control untreated arm"}, "[9]": {"system": "JEKO-1 (Mantle cell lymphoma)", "assay": "cellular cytotoxicity (Annexin V and DAPI cell death) on blood cancer cell lines", "assay_type": "cell-based", "settings": "7.5 μM mocravimod, 2 and 24 hours, compared to control untreated arm"}}, "note": "At least one compound was matched to its structure with a doubt left.", "data": [{"smiles": "NC(CO)(CO)CCc1ccc(Sc2cccc(OCc3ccccc3)c2)cc1Cl", "note": "[mocravimod, 2-amino-2-[4-(3-benzyloxyphenylthio)-2-chlorophenyl]ethyl-propane-1,3-diol]", "values": [{"measurement": "percentage of dead cells", "setting": "[1]", "value": "higher"}, {"measurement": "selectivity for S1PR1 versus S1PR3-5", "setting": "[2]", "value": "acts specifically on S1PR1"}, {"measurement": "acute GVHD", "setting": "[3]", "value": "ameliorated acute GVHD"}, {"measurement": "apoptosis of donor T cells in the secondary lymphoid organs", "setting": "[3]", "value": "induced apoptosis of donor T cells"}, {"measurement": "percentage of dead cells", "setting": "[4]", "value": "higher"}, {"measurement": "percentage of dead cells", "setting": "[5]", "value": "higher"}, {"measurement": "percentage of dead cells", "setting": "[6]", "value": "higher"}, {"measurement": "percentage of dead cells", "setting": "[7]", "value": "higher"}, {"measurement": "percentage of dead cells", "setting": "[8]", "value": "higher"}, {"measurement": "percentage of dead cells", "setting": "[9]", "value": "higher"}]}]}
